Experimental data published in patent publication US20260258085A1 (METHYCURE BIOTECH CORP., priority 2023, published 2026).

Test: peptide synthesis
Details: whole synthesis, HPLC peak area

In the case of “{6-ME-Octanoic acid}-{Dab}-{Thr}-{D-Dab}-{Dab}-{Dab}-{D-Leu}-{Ile}-{Dab}-{Dab}-{Leu}”, the “final HPLC purity” value is reported as 97.211%.
